Data published in the supplement of paper PMC10849652.
This is one part of the list.

Sequences of proteins named here, by UniProt entry; tags and fusion partners are left off. A change or cut given only in a name is not applied to a line headed by its entry.
UniProt P51668: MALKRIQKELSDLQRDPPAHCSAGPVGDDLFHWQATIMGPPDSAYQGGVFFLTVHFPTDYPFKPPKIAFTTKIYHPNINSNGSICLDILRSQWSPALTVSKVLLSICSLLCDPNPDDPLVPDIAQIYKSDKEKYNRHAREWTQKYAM
UniProt O95155, whole entry, looked up: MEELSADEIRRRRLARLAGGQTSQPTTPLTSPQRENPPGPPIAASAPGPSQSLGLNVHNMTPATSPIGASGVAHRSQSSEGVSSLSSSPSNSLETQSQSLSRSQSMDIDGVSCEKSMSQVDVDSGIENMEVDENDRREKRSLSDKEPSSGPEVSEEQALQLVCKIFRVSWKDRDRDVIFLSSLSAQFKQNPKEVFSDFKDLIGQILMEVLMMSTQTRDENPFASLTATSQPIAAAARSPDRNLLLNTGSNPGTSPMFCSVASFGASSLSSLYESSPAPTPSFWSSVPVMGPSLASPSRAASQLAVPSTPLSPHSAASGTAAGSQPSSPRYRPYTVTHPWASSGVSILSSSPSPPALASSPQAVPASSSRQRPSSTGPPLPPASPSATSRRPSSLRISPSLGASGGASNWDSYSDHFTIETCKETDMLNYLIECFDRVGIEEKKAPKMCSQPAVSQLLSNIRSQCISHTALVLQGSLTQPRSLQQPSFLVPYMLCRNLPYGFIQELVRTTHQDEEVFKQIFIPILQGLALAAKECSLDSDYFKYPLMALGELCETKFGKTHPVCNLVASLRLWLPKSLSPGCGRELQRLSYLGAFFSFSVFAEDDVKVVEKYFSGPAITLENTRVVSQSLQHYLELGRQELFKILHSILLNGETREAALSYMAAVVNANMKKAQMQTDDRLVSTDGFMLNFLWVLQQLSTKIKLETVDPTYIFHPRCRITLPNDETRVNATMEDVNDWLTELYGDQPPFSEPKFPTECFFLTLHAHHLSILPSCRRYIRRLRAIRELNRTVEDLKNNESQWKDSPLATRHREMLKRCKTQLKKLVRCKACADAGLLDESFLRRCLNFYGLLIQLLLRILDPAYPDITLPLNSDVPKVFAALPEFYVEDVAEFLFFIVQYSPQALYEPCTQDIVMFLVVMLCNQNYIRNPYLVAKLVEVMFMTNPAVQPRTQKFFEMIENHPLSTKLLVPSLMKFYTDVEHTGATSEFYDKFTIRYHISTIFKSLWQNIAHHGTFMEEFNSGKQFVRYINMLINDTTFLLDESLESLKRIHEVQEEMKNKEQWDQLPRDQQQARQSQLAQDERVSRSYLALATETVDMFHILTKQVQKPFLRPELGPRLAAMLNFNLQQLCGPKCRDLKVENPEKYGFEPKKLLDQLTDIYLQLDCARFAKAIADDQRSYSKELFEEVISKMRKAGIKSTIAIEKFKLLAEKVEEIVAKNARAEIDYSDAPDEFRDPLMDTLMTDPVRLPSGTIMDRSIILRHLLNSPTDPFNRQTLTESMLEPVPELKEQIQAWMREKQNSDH
UniProt Q9H6E5: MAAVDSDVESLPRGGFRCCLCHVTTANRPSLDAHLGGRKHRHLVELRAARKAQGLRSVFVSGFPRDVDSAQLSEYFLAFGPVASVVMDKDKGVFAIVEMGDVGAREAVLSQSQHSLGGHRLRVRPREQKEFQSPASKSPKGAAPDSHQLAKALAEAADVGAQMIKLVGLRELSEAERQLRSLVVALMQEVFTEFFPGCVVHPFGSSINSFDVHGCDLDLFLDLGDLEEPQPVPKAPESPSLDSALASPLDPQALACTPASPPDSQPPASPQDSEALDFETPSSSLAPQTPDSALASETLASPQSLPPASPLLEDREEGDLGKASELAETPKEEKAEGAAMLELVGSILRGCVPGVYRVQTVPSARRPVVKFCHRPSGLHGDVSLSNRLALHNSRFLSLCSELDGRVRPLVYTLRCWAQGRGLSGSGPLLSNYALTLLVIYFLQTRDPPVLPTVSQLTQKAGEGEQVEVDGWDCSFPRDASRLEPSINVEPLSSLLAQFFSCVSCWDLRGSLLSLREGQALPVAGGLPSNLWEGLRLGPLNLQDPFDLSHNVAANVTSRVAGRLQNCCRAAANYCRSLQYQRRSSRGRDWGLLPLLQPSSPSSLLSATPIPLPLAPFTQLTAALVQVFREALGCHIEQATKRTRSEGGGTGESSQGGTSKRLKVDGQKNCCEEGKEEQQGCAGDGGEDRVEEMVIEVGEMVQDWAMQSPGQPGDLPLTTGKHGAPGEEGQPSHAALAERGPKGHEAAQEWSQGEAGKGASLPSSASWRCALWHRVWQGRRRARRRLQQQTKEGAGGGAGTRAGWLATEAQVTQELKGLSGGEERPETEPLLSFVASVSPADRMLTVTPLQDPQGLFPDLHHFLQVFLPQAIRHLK
UniProt P63146, whole entry, looked up: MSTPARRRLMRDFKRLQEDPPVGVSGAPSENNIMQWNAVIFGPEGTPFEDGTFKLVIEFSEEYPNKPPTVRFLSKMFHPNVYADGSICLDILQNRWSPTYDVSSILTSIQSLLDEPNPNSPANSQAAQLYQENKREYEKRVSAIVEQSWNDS
UniProt Q9Y5K5, whole entry, looked up: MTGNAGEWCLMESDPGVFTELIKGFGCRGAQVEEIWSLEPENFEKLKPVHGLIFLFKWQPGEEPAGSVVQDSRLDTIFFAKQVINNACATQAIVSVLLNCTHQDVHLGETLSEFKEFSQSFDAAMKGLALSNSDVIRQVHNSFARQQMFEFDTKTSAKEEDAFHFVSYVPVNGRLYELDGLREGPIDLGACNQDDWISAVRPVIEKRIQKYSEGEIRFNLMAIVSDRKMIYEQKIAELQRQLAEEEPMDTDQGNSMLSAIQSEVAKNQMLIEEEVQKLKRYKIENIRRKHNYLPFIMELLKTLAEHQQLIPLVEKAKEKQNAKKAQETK
UniProt Q86VQ6, whole entry, looked up: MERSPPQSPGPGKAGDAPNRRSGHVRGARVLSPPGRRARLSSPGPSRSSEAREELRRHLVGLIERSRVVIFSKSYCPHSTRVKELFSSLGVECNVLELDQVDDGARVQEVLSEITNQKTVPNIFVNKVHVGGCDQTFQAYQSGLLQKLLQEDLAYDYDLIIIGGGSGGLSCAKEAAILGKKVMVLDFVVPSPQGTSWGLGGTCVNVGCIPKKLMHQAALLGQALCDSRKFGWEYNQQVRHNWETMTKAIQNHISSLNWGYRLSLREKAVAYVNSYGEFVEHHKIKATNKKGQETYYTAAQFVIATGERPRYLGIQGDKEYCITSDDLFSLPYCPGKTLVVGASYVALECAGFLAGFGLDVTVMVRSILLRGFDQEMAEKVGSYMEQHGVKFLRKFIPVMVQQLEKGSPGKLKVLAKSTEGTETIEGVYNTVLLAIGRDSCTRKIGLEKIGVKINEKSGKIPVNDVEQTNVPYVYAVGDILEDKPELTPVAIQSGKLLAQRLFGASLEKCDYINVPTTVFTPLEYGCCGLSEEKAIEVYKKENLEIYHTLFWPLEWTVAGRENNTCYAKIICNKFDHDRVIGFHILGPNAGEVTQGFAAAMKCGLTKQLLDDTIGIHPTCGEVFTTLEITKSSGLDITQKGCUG
UniProt A6NNZ2, whole entry, looked up: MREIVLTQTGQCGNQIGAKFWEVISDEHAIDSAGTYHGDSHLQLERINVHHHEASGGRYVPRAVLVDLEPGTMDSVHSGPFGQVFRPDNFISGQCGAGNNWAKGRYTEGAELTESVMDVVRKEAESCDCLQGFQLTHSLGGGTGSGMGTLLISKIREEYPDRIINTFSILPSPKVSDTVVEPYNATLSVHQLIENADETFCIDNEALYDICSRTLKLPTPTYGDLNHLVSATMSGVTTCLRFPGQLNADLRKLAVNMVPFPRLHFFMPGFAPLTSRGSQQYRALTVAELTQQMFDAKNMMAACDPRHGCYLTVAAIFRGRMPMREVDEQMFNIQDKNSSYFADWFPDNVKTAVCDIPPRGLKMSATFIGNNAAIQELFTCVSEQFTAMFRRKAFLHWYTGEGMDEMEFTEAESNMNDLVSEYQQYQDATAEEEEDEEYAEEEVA
UniProt A2RUC4: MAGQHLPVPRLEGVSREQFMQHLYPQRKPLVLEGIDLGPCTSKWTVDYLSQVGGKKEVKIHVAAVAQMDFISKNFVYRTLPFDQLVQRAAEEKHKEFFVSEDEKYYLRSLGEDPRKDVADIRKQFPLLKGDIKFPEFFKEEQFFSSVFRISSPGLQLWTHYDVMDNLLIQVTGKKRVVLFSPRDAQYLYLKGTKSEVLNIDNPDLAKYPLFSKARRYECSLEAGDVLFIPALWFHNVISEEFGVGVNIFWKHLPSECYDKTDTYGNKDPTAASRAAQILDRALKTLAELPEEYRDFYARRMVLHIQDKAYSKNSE
UniProt Q9NNW7, whole entry, looked up: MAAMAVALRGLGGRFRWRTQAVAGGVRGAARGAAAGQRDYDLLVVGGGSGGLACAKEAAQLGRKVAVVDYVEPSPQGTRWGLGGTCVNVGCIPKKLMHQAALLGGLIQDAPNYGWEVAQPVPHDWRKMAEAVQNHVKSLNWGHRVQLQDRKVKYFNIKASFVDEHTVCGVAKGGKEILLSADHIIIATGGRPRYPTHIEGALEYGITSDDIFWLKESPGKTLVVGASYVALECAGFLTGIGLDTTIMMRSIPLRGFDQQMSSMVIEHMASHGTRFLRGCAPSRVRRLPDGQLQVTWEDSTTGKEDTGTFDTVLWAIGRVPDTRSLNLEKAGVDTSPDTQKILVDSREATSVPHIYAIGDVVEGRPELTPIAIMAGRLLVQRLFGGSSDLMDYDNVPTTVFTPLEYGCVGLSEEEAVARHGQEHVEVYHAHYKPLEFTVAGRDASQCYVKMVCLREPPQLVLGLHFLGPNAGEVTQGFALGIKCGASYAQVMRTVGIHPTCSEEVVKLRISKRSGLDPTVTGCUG
UniProt Q9BVA1, whole entry, looked up: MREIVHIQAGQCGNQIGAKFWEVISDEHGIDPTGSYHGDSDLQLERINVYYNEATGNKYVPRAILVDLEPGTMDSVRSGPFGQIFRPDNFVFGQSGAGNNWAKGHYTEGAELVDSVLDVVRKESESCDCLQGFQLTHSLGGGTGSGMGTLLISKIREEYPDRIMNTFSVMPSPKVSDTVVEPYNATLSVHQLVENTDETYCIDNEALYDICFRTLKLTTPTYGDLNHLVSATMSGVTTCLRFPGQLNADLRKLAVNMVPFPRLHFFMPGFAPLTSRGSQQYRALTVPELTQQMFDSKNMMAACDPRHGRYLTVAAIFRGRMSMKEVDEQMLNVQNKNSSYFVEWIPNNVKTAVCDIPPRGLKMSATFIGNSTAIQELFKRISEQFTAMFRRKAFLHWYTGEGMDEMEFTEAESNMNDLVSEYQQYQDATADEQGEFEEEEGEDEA
UniProt P09936: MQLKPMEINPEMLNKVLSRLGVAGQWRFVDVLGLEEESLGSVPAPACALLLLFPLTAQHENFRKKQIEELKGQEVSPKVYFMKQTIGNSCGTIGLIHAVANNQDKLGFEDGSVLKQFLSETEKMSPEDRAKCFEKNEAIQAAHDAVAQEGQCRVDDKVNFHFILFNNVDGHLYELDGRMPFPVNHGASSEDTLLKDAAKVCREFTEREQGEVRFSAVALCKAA
UniProt O15042: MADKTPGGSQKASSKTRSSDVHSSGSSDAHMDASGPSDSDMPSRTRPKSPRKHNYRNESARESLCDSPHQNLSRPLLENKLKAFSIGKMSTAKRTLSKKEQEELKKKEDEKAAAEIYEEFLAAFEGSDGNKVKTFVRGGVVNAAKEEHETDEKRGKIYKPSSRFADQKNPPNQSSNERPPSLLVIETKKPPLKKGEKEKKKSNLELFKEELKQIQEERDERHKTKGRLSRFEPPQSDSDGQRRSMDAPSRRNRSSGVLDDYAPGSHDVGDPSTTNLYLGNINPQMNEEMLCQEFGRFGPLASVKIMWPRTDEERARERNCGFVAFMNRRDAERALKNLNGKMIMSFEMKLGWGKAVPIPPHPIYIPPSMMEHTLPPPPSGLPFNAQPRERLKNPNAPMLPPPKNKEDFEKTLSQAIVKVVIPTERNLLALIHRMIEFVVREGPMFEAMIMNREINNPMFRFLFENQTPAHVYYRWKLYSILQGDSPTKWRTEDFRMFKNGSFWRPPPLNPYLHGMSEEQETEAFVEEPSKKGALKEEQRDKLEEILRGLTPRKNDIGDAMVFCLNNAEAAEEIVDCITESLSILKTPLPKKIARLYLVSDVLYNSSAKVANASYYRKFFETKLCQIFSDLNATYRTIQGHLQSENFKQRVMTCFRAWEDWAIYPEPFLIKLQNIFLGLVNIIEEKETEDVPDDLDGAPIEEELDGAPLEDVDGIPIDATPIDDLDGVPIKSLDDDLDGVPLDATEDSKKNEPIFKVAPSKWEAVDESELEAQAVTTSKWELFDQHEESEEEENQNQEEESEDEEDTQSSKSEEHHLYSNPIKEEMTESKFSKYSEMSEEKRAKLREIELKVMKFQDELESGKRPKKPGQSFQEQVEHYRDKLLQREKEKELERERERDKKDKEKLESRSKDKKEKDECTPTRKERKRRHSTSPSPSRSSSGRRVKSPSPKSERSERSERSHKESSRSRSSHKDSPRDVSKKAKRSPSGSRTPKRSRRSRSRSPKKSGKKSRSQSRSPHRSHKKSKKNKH
UniProt O75896: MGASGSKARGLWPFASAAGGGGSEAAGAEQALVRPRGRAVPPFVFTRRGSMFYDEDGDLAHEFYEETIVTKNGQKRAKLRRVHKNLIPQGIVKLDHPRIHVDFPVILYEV

How the values were obtained:
Assay in all cases: log2 fold change, soluble protein after heating vs DMSO (PISA); higher = thermal stabilisation; K562 lysate, 10 uM; active = over 0.2 and 3.5 SD of the protein, either way, in both replicates (recomputed)
[1] = compound: C#Cc1cccc(Nc2ncnc3cc(OCCOC)c(OCCOC)cc23)c1 [erlotinib]
In short: (§1)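 Following dounce homogenisation of K562 pellets in PBS pH 7.4 with 1 mM MgCl2, crude extract at 1 mg/mL protein was incubated for 30 min with 10 μM compound. Aliquots were then heated for 3 min over 48°C-58°C and pooled, NP-40 was added to 0.5% at 4°C, and soluble protein was recovered as the supernatant at 21,000xg for 90 min. Channel-sum-equalised TMTpro 16plex LC-MS/MS quantified this protein. Each value, from duplicates, is a log-two fold change in thermal stability relative to solvent controls.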

[2] = compound: C/C(=N\NC(=O)C1=CC(=CC=C1)S(=O)(=O)N2CCOCC2)/C3=C(C=CC(=C3)Cl)O
In short: as §1

[3] = compound: C1=CC(=CC=C1C2=NC3=C(N2)C=C(C=C3)C(=O)N)OC4=CC=C(C=C4)Cl
In short: as §1

[4] = compound: C1=CC2=C(C=CC(=C2)/C=C\3/C(=O)NC(=NCC4=CC=CS4)S3)N=C1
In short: as §1

[5] = compound: C1=CC2=NC=CN=C2C=C1/C=C/3\C(=O)NC(=O)S3
In short: as §1

[6] = compound: C1=CC=C(C=C1)C2=NC(=C(N2)C3=CC=NC=C3)C4=CC(=C(C=C4)Cl)O
In short: as §1

[7] = compound: C1=CC=C2C(=C1)C3=NNC4=CC=CC(=C43)C2=O
In short: as §1

[8] = compound: C1CCN(C1)C(=O)NC2=CC=CC(=C2)NC3=NC=C(C(=N3)NCCC4=CN=CN4)Br
In short: as §1

[9] = compound: C1CN(CCC1(CC2=CC=C(C=C2)Cl)N)C3=NC=NC4=C3C=CN4
In short: as §1

[10] = compound: C1COCCN1CCN2C3=CC=CC=C3N=C2NC(=O)C4=CC(=CC=C4)[N+](=O)[O-] [IRAK-1-4 Inhibitor I]
In short: as §1

Measured: log2 fold change

TXLNA (UniProt P40222)
inactive: [1] -0.005 | [2] -0.003 | [3] 0.028 | [4] -0.006 | [5] 0.01 | [6] 0.035 | [7] 0.01 | [8] 0.032 | [9] 0.006 | [10] 0.004

UBR4 isoform 4 (UniProt Q5T4S7)
inactive: [1] 0.121 | [2] -0.209 | [3] -0.073 | [4] -0.071 | [6] 0.136 | [7] 0.016 | [8] 0.119 | [9] -0.094 | [10] 0.097

TUBA1B (UniProt P68363)
inactive: [1] 0.031 | [2] -0.022 | [3] 0.009 | [4] -0.018 | [5] 0.006 | [6] -0.013 | [7] -0.018 | [8] 0.009 | [9] 0.02 | [10] 0.022

UBAC1 (UniProt Q9BSL1)
inactive: [1] -0.012 | [2] -0.084 | [3] -0.011 | [4] -0.005 | [5] 0.002 | [6] -0.002 | [7] -0.002 | [8] -0.014 | [9] -0.007 | [10] 0.004

UBE2D1 (UniProt P51668)
inactive: [1] -0.043 | [2] 0.008 | [3] 0.072 | [4] -0.007 | [5] -0.032 | [6] 0.008 | [7] -0.006 | [8] -0.042 | [9] 0.015 | [10] -0.038

UBE2E1 (UniProt P51965)
inactive: [1] 0.023 | [2] 0.014 | [3] -0.159 | [4] 0.066 | [5] -0.018 | [6] -0.034 | [7] 0.151 | [8] 0.026 | [9] -0.071 | [10] -0.022

UBN2 (UniProt Q6ZU65)
inactive: [1] 0.075 | [2] -0.442 | [3] -0.104 | [4] -0.18 | [6] -0.016 | [7] -0.084 | [8] -0.005 | [9] 0.172 | [10] 0.012

UBE4B isoform 4 (UniProt O95155)
inactive: [1] 0.025 | [2] 0.012 | [3] 0.001 | [4] 0.013 | [5] 0.021 | [6] -0.008 | [7] -0.039 | [8] -0.003 | [9] 0.003 | [10] 0.018

UBQLN1 (UniProt Q9UMX0)
inactive: [1] 0 | [2] 0.021 | [3] 0.01 | [4] 0.032 | [5] 0.003 | [6] 0.02 | [7] 0.019 | [8] -0.005 | [9] 0.083 | [10] 0.019

TUT1 (UniProt Q9H6E5)
inactive: [1] 0.059 | [2] -0.018 | [3] 0.028 | [4] -0.044 | [5] -0.01 | [6] -0.008 | [7] -0.058 | [8] 0.049 | [9] -0.018 | [10] 0.012

UBE2B (UniProt P63146)
inactive: [1] 0.004 | [2] 0.103 | [3] 0.054 | [4] 0.027 | [5] 0.002 | [6] -0.018 | [7] 0.033 | [8] 0.109 | [9] 0.017 | [10] 0.01

UBE2I (UniProt P63279)
inactive: [1] -0.001 | [2] 0.037 | [3] 0.008 | [4] -0.01 | [5] 0.007 | [6] 0 | [7] 0.023 | [8] 0.034 | [9] 0.021 | [10] 0.007

UCHL5 isoform 3 (UniProt Q9Y5K5)
inactive: [1] -0.015 | [2] -0.012 | [3] 0.015 | [4] -0.018 | [5] 0.01 | [6] -0.005 | [7] 0.001 | [8] 0 | [9] -0.014 | [10] -0.018

UBXN8 (UniProt O00124)
inactive: [1] -0.011 | [3] 0.11 | [6] 0.064 | [8] 0.116 | [9] 0.205 | [10] -0.031

Quoted from the results shown (10 entries):
UBR4 isoform 4 (UniProt Q5T4S7)
inactive: [1] 0.121 | [2] -0.209 | [3] -0.073 | [4] -0.071 | [6] 0.136 | [7] 0.016 | [8] 0.119 | [9] -0.094 | [10] 0.097

TUBA1B (UniProt P68363)
inactive: [1] 0.031 | [2] -0.022 | [3] 0.009 | [4] -0.018 | [5] 0.006 | [6] -0.013 | [7] -0.018 | [8] 0.009 | [9] 0.02 | [10] 0.022

UBAC1 (UniProt Q9BSL1)
inactive: [1] -0.012 | [2] -0.084 | [3] -0.011 | [4] -0.005 | [5] 0.002 | [6] -0.002 | [7] -0.002 | [8] -0.014 | [9] -0.007 | [10] 0.004

UBE2D1 (UniProt P51668)
inactive: [1] -0.043 | [2] 0.008 | [3] 0.072 | [4] -0.007 | [5] -0.032 | [6] 0.008 | [7] -0.006 | [8] -0.042 | [9] 0.015 | [10] -0.038

UBE2E1 (UniProt P51965)
inactive: [1] 0.023 | [2] 0.014 | [3] -0.159 | [4] 0.066 | [5] -0.018 | [6] -0.034 | [7] 0.151 | [8] 0.026 | [9] -0.071 | [10] -0.022

UBN2 (UniProt Q6ZU65)
inactive: [1] 0.075 | [2] -0.442 | [3] -0.104 | [4] -0.18 | [6] -0.016 | [7] -0.084 | [8] -0.005 | [9] 0.172 | [10] 0.012

UBE4B isoform 4 (UniProt O95155)
inactive: [1] 0.025 | [2] 0.012 | [3] 0.001 | [4] 0.013 | [5] 0.021 | [6] -0.008 | [7] -0.039 | [8] -0.003 | [9] 0.003 | [10] 0.018

UBQLN1 (UniProt Q9UMX0)
inactive: [1] 0 | [2] 0.021 | [3] 0.01 | [4] 0.032 | [5] 0.003 | [6] 0.02 | [7] 0.019 | [8] -0.005 | [9] 0.083 | [10] 0.019

TUT1 (UniProt Q9H6E5)
inactive: [1] 0.059 | [2] -0.018 | [3] 0.028 | [4] -0.044 | [5] -0.01 | [6] -0.008 | [7] -0.058 | [8] 0.049 | [9] -0.018 | [10] 0.012

UBE2B (UniProt P63146)
inactive: [1] 0.004 | [2] 0.103 | [3] 0.054 | [4] 0.027 | [5] 0.002 | [6] -0.018 | [7] 0.033 | [8] 0.109 | [9] 0.017 | [10] 0.01

(next part)

TYRO3 (UniProt Q06418)
inactive: [2] -0.171 | [4] -0.042 | [5] 0.025 | [6] -0.146 | [7] -0.089 | [8] -0.023 | [9] -0.036 | [10] 0.193

TXNRD3 (UniProt Q86VQ6)
inactive: [1] 0.193 | [3] 0.348 | [5] 0.094 | [8] -0.139 | [9] -0.072

UBAP2L (UniProt F8W726)
inactive: [2] -0.074 | [4] 0.048 | [7] 0.168

TUBB8B (UniProt A6NNZ2)
inactive: [2] 0.018 | [4] 0.008 | [5] 0.001 | [6] -0.069 | [7] -0.039 | [8] -0.025 | [9] 0.001 | [10] 0.042

TXNRD1 isoform 7 (UniProt Q16881)
inactive: [2] 0.079 | [4] 0.011 | [5] -0.071 | [6] 0.066 | [7] -0.092 | [8] -0.049 | [9] 0.15 | [10] 0.292

TYW5 (UniProt A2RUC4)
inactive: [1] 0.018 | [3] -0.118 | [5] -0.231 | [8] 0.081 | [9] 0.045

TXNRD2 isoform 3 (UniProt Q9NNW7)
inactive: [1] 0.024 | [3] 0.035 | [6] 0.14 | [10] -0.006

TUBB2B (UniProt Q9BVA1)
inactive: [5] -0.031 | [8] -0.02 | [9] 0.143

TUBB4A (UniProt P04350)
inactive: [1] 0.036 | [3] 0.015 | [5] -0.016 | [6] -0.066 | [8] 0.017 | [9] -0.001 | [10] 0.086

UBE2K (UniProt D6RDM7)
inactive: [1] -0.209 | [2] -0.048 | [3] -0.088 | [4] -0.063 | [7] -0.006 | [8] 0.149 | [9] 0.08

UCHL1 (UniProt P09936)
inactive: [8] 0.432 | [9] 0.526

U2SURP isoform 2 (UniProt O15042)
inactive: [1] -0.315 | [2] 0.013 | [3] -0.109 | [4] 0.121 | [7] 0.043 | [8] 0.016 | [9] 0.106

TUBA4A (UniProt C9JQ00)
inactive: [5] -0.18

UBA7 (UniProt P41226)
inactive: [1] 0.145 | [3] -0.021

TUSC2 (UniProt O75896)
inactive: [1] -0.007 | [3] -0.136 | [5] -0.123 | [6] 0.059 | [8] -0.078 | [9] 0.006 | [10] -0.088

UBA2 (UniProt U3KQ93)
inactive: [1] 0.129 | [3] 0.109 | [8] 0.108 | [9] -0.005

UBA52 (UniProt P62987)
inactive: [1] -0.124 | [3] -0.173 | [5] -0.031 | [8] -0.008 | [9] 0.009

TUFT1 (UniProt Q9NNX1)
inactive: [1] 0.034 | [3] 0.194 | [5] 0.04 | [6] -0.027 | [8] -0.079 | [9] 0.071 | [10] -0.01

TULP3 isoform 2 (UniProt O75386)
inactive: [1] 0.244 | [2] -0.457 | [3] 0.048 | [4] -0.033 | [6] 0.03 | [7] -0.338 | [10] -0.04

UBQLN1 (UniProt H0YEZ9)
inactive: [1] -0.006 | [3] -0.044

TXNDC2 (UniProt Q86VQ3)
inactive: [1] 0.039 | [3] 0.05 | [5] -0.001 | [6] -0.029 | [10] 0.031

U2AF2 (UniProt K7ELP8)
inactive: [2] -0.349 | [4] 0.205 | [7] -0.13 | [8] -0.139 | [9] -0.171

UBE2I (UniProt H3BQQ9)
inactive: [2] -0.055 | [4] -0.234 | [5] 0.141 | [6] 0.02 | [7] 0.047 | [10] 0.142
